Five substances from paper PMC8096222 can be followed below.

Sequences of proteins named here, by UniProt entry; tags and fusion partners are left off. A change or cut given only in a name is not applied to a line headed by its entry. A line that says so, or that is headed by a name, gives the form on record, which may keep a tag or linker. Residues count along the entry.
UniProt Q93009: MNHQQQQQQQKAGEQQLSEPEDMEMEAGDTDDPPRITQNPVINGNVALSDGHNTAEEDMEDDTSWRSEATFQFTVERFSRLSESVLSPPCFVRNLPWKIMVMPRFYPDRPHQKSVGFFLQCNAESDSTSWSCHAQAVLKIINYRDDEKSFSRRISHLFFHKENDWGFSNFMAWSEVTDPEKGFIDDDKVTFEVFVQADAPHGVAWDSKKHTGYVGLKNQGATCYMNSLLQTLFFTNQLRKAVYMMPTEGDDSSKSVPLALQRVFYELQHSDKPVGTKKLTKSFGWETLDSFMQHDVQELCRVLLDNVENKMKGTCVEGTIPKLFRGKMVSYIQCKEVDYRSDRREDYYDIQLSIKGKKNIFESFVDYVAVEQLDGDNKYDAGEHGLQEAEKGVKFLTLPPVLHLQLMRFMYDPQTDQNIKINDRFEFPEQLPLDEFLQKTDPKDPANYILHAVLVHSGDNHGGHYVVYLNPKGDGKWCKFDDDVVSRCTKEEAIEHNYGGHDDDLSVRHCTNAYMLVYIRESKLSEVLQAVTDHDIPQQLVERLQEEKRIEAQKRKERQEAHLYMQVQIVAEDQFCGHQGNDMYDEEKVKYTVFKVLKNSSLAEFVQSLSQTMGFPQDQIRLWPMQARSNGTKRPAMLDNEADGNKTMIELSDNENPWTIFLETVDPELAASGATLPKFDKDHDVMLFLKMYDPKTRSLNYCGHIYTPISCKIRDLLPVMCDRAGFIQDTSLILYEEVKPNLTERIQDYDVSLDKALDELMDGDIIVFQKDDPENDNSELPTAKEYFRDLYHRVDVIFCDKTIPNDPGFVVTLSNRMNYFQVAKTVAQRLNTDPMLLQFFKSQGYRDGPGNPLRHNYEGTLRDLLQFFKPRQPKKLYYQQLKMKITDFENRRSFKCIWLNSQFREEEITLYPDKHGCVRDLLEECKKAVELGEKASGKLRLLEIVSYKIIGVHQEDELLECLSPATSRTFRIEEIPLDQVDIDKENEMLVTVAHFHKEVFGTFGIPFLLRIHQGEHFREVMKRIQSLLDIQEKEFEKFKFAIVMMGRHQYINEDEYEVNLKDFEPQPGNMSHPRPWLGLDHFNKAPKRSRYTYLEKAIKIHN
USP7 MATH domain (His-tagged deletion mutant of USP7): residues 68-195 of Q93009
UniProt Q15910: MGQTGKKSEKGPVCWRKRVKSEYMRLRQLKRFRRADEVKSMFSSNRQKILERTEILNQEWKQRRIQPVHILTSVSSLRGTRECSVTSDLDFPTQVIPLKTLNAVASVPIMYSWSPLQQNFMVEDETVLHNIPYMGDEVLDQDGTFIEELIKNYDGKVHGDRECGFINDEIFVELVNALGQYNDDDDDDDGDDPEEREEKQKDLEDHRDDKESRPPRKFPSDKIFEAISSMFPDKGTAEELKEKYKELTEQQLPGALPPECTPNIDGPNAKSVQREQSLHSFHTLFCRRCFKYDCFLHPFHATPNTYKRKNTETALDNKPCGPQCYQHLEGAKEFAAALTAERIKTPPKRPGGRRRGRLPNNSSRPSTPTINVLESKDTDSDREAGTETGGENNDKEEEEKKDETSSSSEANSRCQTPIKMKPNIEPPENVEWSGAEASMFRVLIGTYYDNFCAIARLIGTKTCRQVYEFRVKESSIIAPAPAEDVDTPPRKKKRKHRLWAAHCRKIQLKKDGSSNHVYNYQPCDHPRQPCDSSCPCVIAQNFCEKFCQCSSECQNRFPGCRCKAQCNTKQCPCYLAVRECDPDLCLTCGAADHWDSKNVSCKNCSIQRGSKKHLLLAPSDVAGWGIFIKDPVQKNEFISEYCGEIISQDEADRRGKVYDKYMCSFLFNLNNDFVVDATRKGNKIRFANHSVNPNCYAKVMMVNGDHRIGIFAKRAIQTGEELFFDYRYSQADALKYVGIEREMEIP
GST-fused EZH2 N1 domain (aa 1-173): residues 1-173 of Q15910
EZH2, in vitro-transcribed/translated (Q15910-2, form named): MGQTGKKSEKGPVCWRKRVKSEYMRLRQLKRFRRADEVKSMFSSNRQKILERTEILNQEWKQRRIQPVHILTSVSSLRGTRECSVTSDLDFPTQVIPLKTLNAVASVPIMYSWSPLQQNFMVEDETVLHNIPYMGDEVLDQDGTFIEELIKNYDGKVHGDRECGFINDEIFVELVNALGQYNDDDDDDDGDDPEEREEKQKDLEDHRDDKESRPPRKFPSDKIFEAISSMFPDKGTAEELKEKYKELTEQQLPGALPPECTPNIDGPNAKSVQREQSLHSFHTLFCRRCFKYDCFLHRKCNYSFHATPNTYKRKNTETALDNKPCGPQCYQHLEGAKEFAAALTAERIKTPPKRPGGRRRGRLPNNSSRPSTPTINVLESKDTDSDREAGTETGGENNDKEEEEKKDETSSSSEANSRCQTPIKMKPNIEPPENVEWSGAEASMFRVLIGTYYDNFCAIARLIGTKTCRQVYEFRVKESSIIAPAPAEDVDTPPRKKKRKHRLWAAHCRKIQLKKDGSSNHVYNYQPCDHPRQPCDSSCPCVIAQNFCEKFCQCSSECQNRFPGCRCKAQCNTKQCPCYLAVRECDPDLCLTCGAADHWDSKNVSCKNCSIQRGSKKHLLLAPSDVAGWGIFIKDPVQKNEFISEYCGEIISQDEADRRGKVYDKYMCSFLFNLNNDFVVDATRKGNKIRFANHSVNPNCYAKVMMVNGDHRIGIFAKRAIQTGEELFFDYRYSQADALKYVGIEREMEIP
UniProt O75530: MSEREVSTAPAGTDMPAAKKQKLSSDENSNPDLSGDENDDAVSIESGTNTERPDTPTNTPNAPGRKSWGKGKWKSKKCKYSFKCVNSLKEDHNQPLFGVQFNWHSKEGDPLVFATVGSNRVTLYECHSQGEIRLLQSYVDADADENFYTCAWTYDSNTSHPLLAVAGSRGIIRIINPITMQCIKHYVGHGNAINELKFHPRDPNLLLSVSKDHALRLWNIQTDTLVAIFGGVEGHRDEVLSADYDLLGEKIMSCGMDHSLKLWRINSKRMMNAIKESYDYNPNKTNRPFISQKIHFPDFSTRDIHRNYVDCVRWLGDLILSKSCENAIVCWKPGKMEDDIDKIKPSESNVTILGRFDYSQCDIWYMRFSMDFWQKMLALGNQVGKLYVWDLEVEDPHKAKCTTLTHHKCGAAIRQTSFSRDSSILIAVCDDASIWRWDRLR
UniProt Q15022: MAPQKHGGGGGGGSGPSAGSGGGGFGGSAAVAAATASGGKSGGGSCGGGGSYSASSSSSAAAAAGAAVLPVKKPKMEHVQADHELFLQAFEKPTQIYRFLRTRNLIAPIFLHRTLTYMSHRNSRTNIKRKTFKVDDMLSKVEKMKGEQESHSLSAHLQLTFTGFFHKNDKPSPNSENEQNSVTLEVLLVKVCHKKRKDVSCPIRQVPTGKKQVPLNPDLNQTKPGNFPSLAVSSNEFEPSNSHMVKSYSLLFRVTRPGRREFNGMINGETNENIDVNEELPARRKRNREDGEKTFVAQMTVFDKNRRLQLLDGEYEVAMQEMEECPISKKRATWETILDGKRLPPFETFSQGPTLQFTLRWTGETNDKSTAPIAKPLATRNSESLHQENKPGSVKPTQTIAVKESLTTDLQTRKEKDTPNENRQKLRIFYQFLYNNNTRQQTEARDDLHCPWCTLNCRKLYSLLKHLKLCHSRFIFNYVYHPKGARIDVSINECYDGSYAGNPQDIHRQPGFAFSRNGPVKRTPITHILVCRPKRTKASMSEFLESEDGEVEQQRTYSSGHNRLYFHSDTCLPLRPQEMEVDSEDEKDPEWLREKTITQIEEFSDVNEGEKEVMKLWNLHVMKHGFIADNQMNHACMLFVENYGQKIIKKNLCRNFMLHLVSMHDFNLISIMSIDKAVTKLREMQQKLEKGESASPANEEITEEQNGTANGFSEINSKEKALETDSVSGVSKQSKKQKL

Assay [1] deals with His-tagged USP7/WT, full length (UniProt Q93009). Briefly: pull-down; His pull-down: His-tagged USP7 or its deletion mutants purified from Sf9 cells incubated with in vitro-transcribed/translated EZH2, SUZ12 or EED at 4°C overnight; immunoblot; only the target purified. For orientation: Immunoblotting shows a protein as a band on a membrane.
Assay [2] concerns the target EZH2 (human (endogenous in A375 and HEK293T)) (UniProt Q15910). Briefly: SEC; A375 nuclear extracts (high salt extraction) on a Superose 6 size exclusion column, 0.5 ml/min; fractions analysed by western blotting. In general terms: SEC sorts molecules by how far they enter the pores of the column.
Assay [3] shares this target. Briefly: co-IP; endogenous proteins; whole cell lysates of A375 and HEK293T cells in NETN buffer (50 mM Tris-HCl pH 8.0, 150 mM NaCl, 0.2% Nonidet P-40, 2 mM EDTA); antibodies 12 h at 4°C, protein G magnetic beads; immunoblot.
Assay [4] has as its target GST-fused EZH2 N1 domain (aa 1-173) (UniProt Q15910). Briefly: pull-down; GST pull-down: GST-fused EZH2 deletion mutants from E. coli on glutathione-Sepharose 4B beads (washed with 300 mM NaCl buffer) incubated with in vitro-transcribed/translated FLAG-USP7 at 4°C overnight; immunoblot; only the target purified.
In assay [5] the target is USP7 MATH domain (His-tagged deletion mutant of USP7) (UniProt Q93009). Briefly: pull-down; His pull-down: His-tagged USP7 or its deletion mutants purified from Sf9 cells incubated with in vitro-transcribed/translated EZH2, SUZ12 or EED at 4°C overnight; immunoblot; only the target purified.

Results are given in words; binding and its absence hold for the method and conditions named. For some of these results: Binding seen in cells or lysates may run through a third protein. Some results given as binding are weak or reduced against the parent protein; the word gives no strength.

With “EED, in vitro-transcribed/translated (from UniProt O75530 1-441)”, the binding result in assay [1] is given as “no binding”.
On the same count and under the same terms, next, “SUZ12, in vitro-transcribed/translated (from UniProt Q15022 1-739)”: “no binding”.
As for “ubiquitin-specific protease 7 (USP7) (from UniProt Q93009 1-1102) (enzyme)”, the binding result in assay [2] and in assay [3] was “binds” each time.
As to “FLAG-USP7, in vitro-transcribed/translated (from UniProt Q93009 1-1102) (enzyme)”, the binding entry in assay [4] is listed as “binds”.
“EZH2, in vitro-transcribed/translated (from UniProt Q15910-2 1-751) (enzyme)”: the binding entry in assay [5] and in assay [1] was “binds” throughout.
